Hit rate of the full screen: of about 400,000 compounds, about 13,000 (3.2%) were called active. Inconclusive results, whose numbers are uncertain, are shown with a selection of clear calls. Calls come from the whole dose curve; as a rule, active = well fitted cell-killing curve with a large enough effect; inconclusive = small, poorly fitted or top-dose-only effect, or effect the other way; inactive = flat fitted curve, though single readings scatter. Potencies of inconclusive entries are doubtful fits and often do not repeat.
Assay: qHTS assay for MDR1-selective chemotherapeutics: Primary screen using the drug-selected MDR subline cells KB-V1; note: nearly all actives have a fitted effect of over 60% in size
Settings: KB-V1 MDR cells viability, CellTiter-Glo, 72 h; activity change, negative = cytotoxicity: at 46.1 µM (top of the series)
Method in brief: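 Potencies derive from concentration-effect curves fitted to normalized luminescence (CellTiter-Glo) of KB-V1 cells treated for 72 h at 37 degrees C in phenol-red-free DMEM containing 10% FBS.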
% is set by controls: 0 for no effect and ±100 for the full control effect; potency is the fitted concentration of half-maximal effect.

Structure (SMILES)	Potency	activity change, negative = cytotoxicity
CCOc1ccc(OCC)c(NC(=O)C2CCN(c3nn4c(=O)cc(C)nc4s3)CC2)c1	inconclusive: 29.1 µM [cytotoxic, single point]	–
NC(=O)c1[nH]cnc1N=NN(CCO)Cc1ccccc1	inconclusive: 29.1 µM [cytotoxic, single point]	–
COc1ccc(S(=O)(=O)N2CCOCC2)cc1NC(=O)c1ccc2c(c1)OCO2	–	inactive: 1.76%
O=C(NC1CCCCC1)c1cccc(OCc2ccccc2)c1	inconclusive: 29.1 µM [cytotoxic, single point]	–
COc1cccc(N2CCN(c3ccc4nnc(CCC(=O)O)n4n3)CC2)c1	inconclusive: 20.6 µM [rising, single point]	–
O=C(Nc1ccc(C(F)(F)F)cc1)c1ccc(NC(=O)C2CCCO2)cc1 (stereo unspecified)	–	inactive: -27.4%
COCC(C)n1c(SCc2cc(=O)n3cc(C)ccc3n2)nc2ccccc2c1=O (stereo unspecified)	inconclusive: 5.17 µM [cytotoxic, partial curve, poor fit]	–
Nc1nc2ncccc2cc1C(=O)NC1CCCCC1	–	inactive: 0%
O=C(CSCc1ccccc1)NCCCN1CCOCC1	inconclusive: 4.11 µM [cytotoxic, full curve, poor fit]	–
O=C(NC1CCCCC1)C(c1ccco1)N(C(=O)c1csnn1)C1CCCC1 (stereo unspecified)	active: 16.4 µM	–
CC(C(=O)NCCN1C(=O)S/C(=C\c2cccnc2)C1=O)N1C(=O)c2ccccc2C1=O (stereo unspecified)	–	inactive: 10.5%
Cc1ccc(-n2c(SCC(=O)c3c(N)n(C)c(=O)n(C)c3=O)nc3sc4c(c3c2=O)CCCC4)c(C)c1	active: 20.6 µM	–
Cc1[nH]n(C(N)=S)c(=O)c1N=Nc1ccc(Br)cc1	–	inactive: -16.5%
Cc1ccc(-c2cnc(C(O)c3cccc(C)c3C)[nH]2)cc1 (stereo unspecified)	–	inactive: 0.531%
Cn1c(CC(=O)Nc2ccc(Cl)c(Cl)c2)nnc1SCC(=O)Nc1nccs1	–	inactive: 1.71%
CCC(C)(C)NC(=O)C(c1ccco1)N(C(=O)c1csnn1)c1cccc(F)c1 (stereo unspecified)	active: 16.4 µM	–
CCOC(=O)N1CCN(C(=O)C(CC)c2ccccc2)CC1 (stereo unspecified)	active: 11.6 µM	–
O=c1oc2cc(O)ccc2cc1S(=O)(=O)c1ccccc1	inconclusive: 29.1 µM [cytotoxic, single point]	–
Cc1ccc(NC(=S)NNC(=O)CCn2cc(C)cn2)cc1	inconclusive: 29.1 µM [cytotoxic, single point]	–
N=c1c(C(=O)NCc2ccc3c(c2)OCO3)cc2c(=O)n3ccccc3nc2n1Cc1cccnc1	–	inactive: 4.7%
O=c1[nH]c2cc3c(cc2cc1CN(CC1CCCO1)S(=O)(=O)c1ccccc1)OCCO3 (stereo unspecified)	inconclusive: 29.1 µM [cytotoxic, single point]	–
Fc1cc(NC(=S)NCc2ccc(CNC(=S)Nc3ccc(Cl)c(F)c3)cc2)ccc1Cl	–	inactive: 1.06%
O=C(O)C1C(c2ccccc2)C(C(=O)OCc2ccco2)C1c1ccccc1 (stereo unspecified)	–	inactive: 0.812%
Cc1ccc(N(Cc2ccccc2)C(=O)c2cccc(F)c2)cc1	–	inactive: -6.04%

Structure (SMILES)	Potency	activity change, negative = cytotoxicity
COC(=O)c1cc2ccsc2n1CC(=O)N1CCCc2ccccc21	inconclusive: 29.1 µM [cytotoxic, single point]	–
CN(C)CCCN1C(=O)c2cccc3c([N+](=O)[O-])ccc(c23)C1=O	inconclusive: 9.2 µM [cytotoxic, partial curve]	–
CC(C)Oc1cc(NC(=O)CSCC(=O)Nc2cccc(C(F)(F)F)c2)c(Cl)cc1Cl	active: 13 µM	–
Cc1cc(C)c(CN2CCN(C(=O)CC[C@H]3O[C@@H](n4ccc(=O)[nH]c4=O)[C@H](O)[C@@H]3O)CC2)c(C)c1	–	inconclusive: -14.7%
CC(C)C(=O)N1CCC(n2nccc2NC(=O)CCc2ccccc2)CC1	inconclusive: 6.51 µM [rising, partial curve]	–
CCOc1ccc(S(=O)(=O)N2CCc3cc(OC)c(OC)cc3C2)cc1	active: 2.31 µM	–
CCOC(=O)Cc1csc(NC(=O)c2ccc(S(=O)(=O)N3CCCCC3)cc2)n1	active: 14.6 µM	–
Cc1ccc(CNC(=O)Cn2cnc3c(NCc4ccccc4)ncnc32)o1	inconclusive: 16.4 µM [cytotoxic, single point]	–
COc1ccc(-n2c(-c3cnccn3)n[nH]c2=S)cc1	–	inactive: -8.07%
COc1ccccc1C(=O)N/N=C/c1ccc2c(c1)OCO2	–	inactive: 3.78%
CCN(CCO)c1ncnc2c1sc1nc(CC(C)C)c3c(c12)CC(C)(C)OC3	inconclusive: 23.1 µM [cytotoxic, single point]	–
CC(O)CNCCCOc1ccccc1OCc1ccccc1 (stereo unspecified)	inconclusive: 25.9 µM [cytotoxic, partial curve, poor fit]	–
CCOc1cc(/C=C2\C(=N)N3N=C(N4CCCCC4)SC3=NC2=O)ccc1OC(=O)c1ccco1	inconclusive: 16.4 µM [rising, partial curve, poor fit]	–
COc1ccc(C2c3[nH]c4ccccc4c3CCN2C(=O)c2cc3ncccn3n2)c(F)c1 (stereo unspecified)	inconclusive: 16.4 µM [cytotoxic, single point]	–
Cc1ccc(Cn2c(C(C)Nc3nc(-c4ccc(Cl)c([N+](=O)[O-])c4)cs3)nc3cc(C(F)(F)F)ccc32)cc1 (stereo unspecified)	–	inactive: -6.62%
S=C(Nc1cc(Cl)ccc1Oc1ccccc1)N1CCN(c2ccccn2)CC1	inconclusive: 29.1 µM [cytotoxic, single point]	–
O=C(NCC(c1cccnc1)N1CCN(Cc2ccccc2)CC1)C(=O)Nc1cccc(F)c1 (stereo unspecified)	–	inactive: 0%
Cc1cc(NC(=O)COC(=O)c2oc3c(Cl)cccc3c2C)no1	inconclusive: 32.6 µM [cytotoxic, single point]	–
O=C(Cn1nc(C(F)(F)F)c2c1CCCC2)N1CCOCC1	–	inactive: 2.79%
CC1(C)Cc2c(sc3nc(N/N=C/c4ccccc4)[nH]c(=O)c23)CO1	inconclusive: 32.6 µM [cytotoxic, single point]	–
C(=C1c2ccccc2-c2ccccc21)c1ccncc1	inconclusive: 29.1 µM [cytotoxic, single point]	–
C/C=C\C=C/C(=O)Nc1cccc(C2=NOC3(C2)C[C@H](C(N)=O)N(C(=O)CC)C3)c1 (stereo partly specified)	inconclusive: 29.1 µM [rising, single point]	–
COc1cc(/C=C/C(=O)N[C@@H](Cc2c[nH]c3ccccc23)C(=O)O)ccc1O	inconclusive: 18.4 µM [rising, single point]	–
CCn1c(CSc2nc(C)cc(C)n2)nnc1SCC(=O)Nc1ccccc1	active: 20.6 µM	–

Structure (SMILES)	Potency	activity change, negative = cytotoxicity
O=c1c(Cl)c2oc3ccccc3nc-2c2ccccc12	inconclusive: 16.4 µM [cytotoxic, single point]	–
c1ccc(Cc2nn3c(-c4ccncc4)nnc3s2)cc1	inconclusive: 23.1 µM [cytotoxic, partial curve, poor fit]	–
COc1ccc(C(=O)OCC(=O)NCC2CCCO2)cc1[N+](=O)[O-] (stereo unspecified)	inconclusive: 16.4 µM [rising, partial curve, poor fit]	–
COc1ccc(C(CNC(=O)c2ccccc2C)N2CCCC2)cc1 (stereo unspecified)	–	inactive: -0.384%
CC(C)C[C@H](NC(=O)OC(C)(C)C)C(=O)N[C@@H](CO)[C@H](O)[C@@H]1C[C@@H]1C(=O)N1CCCC1	–	inactive: 2.62%
Cc1ccc(Cn2c(=O)n(CC3CCC(C(=O)N4CCOCC4)CC3)c(=O)c3sccc32)cc1 (stereo unspecified)	–	inactive: 3.34%
O=C(NCc1ccoc1)c1ccc(NC(=O)c2ccccc2Cl)cc1	inconclusive: 20.6 µM [cytotoxic, partial curve]	–
O=C(OCC1OC(n2cnc3c(N(C(=O)c4ccccc4)C(=O)c4ccccc4)ncnc32)C(O)C1F)c1ccccc1 (stereo unspecified)	–	inactive: -3.33%
CCOC(=O)C1=C(CN2CCN(C(=O)c3ccco3)CC2)NC(=O)NC1c1ccc(Cl)cc1 (stereo unspecified)	inconclusive: 5.17 µM [cytotoxic, full curve]	–
O=C(CSc1nnc(NC2CCCCC2)s1)Nc1ccc2c(c1)C(=O)c1ccccc1C2=O	–	inactive: 7.51%
CCc1ccc(S(=O)(=O)N2CCN(Cc3ccco3)CC2)cc1	inconclusive: 14.6 µM [cytotoxic, partial curve]	–
O=C(CCCN1C(=O)c2cccc3cccc(c23)C1=O)NCc1cccnc1	inconclusive: 20.6 µM [cytotoxic, single point]	–
COc1ccc(Br)cc1[C@H]1[C@H]2C=CC[C@@H](C)[C@@H]2C(=O)N1Cc1ccccc1	inconclusive: 32.6 µM [cytotoxic, single point]	–
COc1cccc(OCCN2CCN(c3ncnc4c3cnn4-c3ccccc3)CC2)c1	active: 5.17 µM	–
CCOC(=O)CC(NC(=O)Cn1nnc(-c2ccc(C(F)(F)F)cc2)n1)c1ccc(C)cc1 (stereo unspecified)	inconclusive: 11.6 µM [cytotoxic, partial curve]	–
CCCOc1cccc(C(=O)NCCNC(=O)c2ccco2)c1	inconclusive: 20.6 µM [cytotoxic, single point]	–
COc1cccc(-c2ccc(NC(=O)C3CCCN(CCCn4nc(C)cc4C)C3)cc2)c1 (stereo unspecified)	–	inactive: -1.01%
CC1CC(C)CN(c2oc(-c3ccco3)nc2C#N)C1 (stereo unspecified)	active: 20.6 µM	–
COC(C/C=C/C(=O)[C@H](C)OCc1ccccc1)OC	inconclusive: 7.31 µM [cytotoxic, partial curve, poor fit]	–
CCc1noc(C)c1C(=O)OCC(=O)c1ccc(NC(=O)CC(C)C)cc1	–	inactive: -24.6%
O=C(NCc1cccc(C(F)(F)F)c1)C1C(=O)Nc2ccccc2C(=O)N1Cc1ccccc1 (stereo unspecified)	inconclusive: 20.6 µM [cytotoxic, partial curve, poor fit]	–
CCC1(c2ccc(F)cc2)NC(=O)N(CC(=O)Nc2ccc(N3CCCCC3)cc2)C1=O (stereo unspecified)	active: 23.1 µM	–
CCN1CCN(C(=O)c2ccc(-c3nc4ccccc4s3)s2)CC1	–	inactive: 0%

Some of the entries so far, with each value named:
CCOC(=O)C1=C(CN2CCN(C(=O)c3ccco3)CC2)NC(=O)NC1c1ccc(Cl)cc1 (stereo unspecified)
  Potency: inconclusive: 5.17 µM [cytotoxic, full curve]
O=C(CSc1nnc(NC2CCCCC2)s1)Nc1ccc2c(c1)C(=O)c1ccccc1C2=O
  activity change, negative = cytotoxicity: inactive: 7.51%
CCc1ccc(S(=O)(=O)N2CCN(Cc3ccco3)CC2)cc1
  Potency: inconclusive: 14.6 µM [cytotoxic, partial curve]
O=C(CCCN1C(=O)c2cccc3cccc(c23)C1=O)NCc1cccnc1
  Potency: inconclusive: 20.6 µM [cytotoxic, single point]

— PubChem BioAssay AID1347076 (National Center for Advancing Translational Sciences (NCATS), 2019)
